One substance from PMC2949623 can be followed below.

The experiment has as its target T1, KSRP-eCFP (UniProt Q92945).
T1 sequence: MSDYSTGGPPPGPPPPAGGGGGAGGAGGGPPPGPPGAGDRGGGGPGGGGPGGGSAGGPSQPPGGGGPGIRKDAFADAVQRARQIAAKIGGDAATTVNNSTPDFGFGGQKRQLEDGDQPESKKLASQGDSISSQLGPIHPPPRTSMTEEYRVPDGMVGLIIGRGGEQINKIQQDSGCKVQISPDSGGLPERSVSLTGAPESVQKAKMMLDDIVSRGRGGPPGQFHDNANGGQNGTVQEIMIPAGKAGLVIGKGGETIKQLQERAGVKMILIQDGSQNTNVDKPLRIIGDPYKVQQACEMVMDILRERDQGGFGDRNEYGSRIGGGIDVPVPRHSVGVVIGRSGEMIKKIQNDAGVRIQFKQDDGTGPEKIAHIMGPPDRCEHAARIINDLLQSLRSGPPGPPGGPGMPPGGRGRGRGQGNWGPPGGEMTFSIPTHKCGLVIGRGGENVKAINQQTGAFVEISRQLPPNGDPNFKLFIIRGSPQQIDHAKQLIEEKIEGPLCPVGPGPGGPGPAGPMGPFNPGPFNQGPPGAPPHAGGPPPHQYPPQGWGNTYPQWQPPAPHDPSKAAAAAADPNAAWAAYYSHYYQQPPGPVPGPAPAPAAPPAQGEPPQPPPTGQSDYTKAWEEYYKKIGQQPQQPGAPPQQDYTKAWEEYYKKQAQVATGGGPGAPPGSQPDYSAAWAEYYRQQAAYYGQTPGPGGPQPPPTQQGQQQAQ
Put plainly: FRET or BRET; traditional FRET between eCFP and eYFP tagged proteins transiently transfected into DDT1-MF2 cells; FRETc images of live or fixed cells, room temperature; control cells, 0.5 mM sodium arsenite 30 min, or 75 nM anisomycin 24 h.

No constants are given. Whether binding was seen depends on the method and setting. Binding seen in cells or lysates may run through a third protein. Binding can be weak; no strength is given. Tags and fused reporters may be left off the sequences shown.

In the case of TIA-1-eYFP, the binding entry is on record as “binds”.
